Results deposited as PubChem BioAssay AID1259405 (NCATS, 2018)
Aim: 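Mouse-designed siRNAs used to find CHO productivity engineering targets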 (primary screen). Cells: Chinese hamster CHO-K1 ovary cells with stable secreted eGFP expression. Knock-down reagent: single siRNA against mouse genes, 0.8 pmol siRNA per well (2 µl of 400 nM stock). Time to read-out: 3 days. Detection: 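Per-well intracellular GFP measured by laser scanning cytometry, plus viability from ATP luminescence, each relative to plate median of non-targeting control wells, in %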. Direction: GFP, % of control: higher = more GFP per well, higher productivity; viability (ATP), % of control: higher = more viable cells (more ATP). Active means: 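Called active when intracellular GFP, relative to negative control, is at or above 120%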.
The deposit covers about 50,000 reagents; below is a part drawn at random. In the full data, about 4,000 (8%) are marked active. 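Mouse siRNA library applied to hamster cells; one well for each siRNA.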 Reagents against one gene are numbered here.

What is on record for Gstk1 #1?
GFP, % of control: 56.1; viability (ATP), % of control: 53.6; Outcome: inactive

Which result is listed for Gstk1 #2?
GFP, % of control: 45; viability (ATP), % of control: 35.9; Outcome: inactive

What did the screen give for Atg101 #1?
GFP, % of control: 84.3; viability (ATP), % of control: 74.2; Outcome: inactive

For Atg101 #2, what does the deposit list?
GFP, % of control: 27.2; viability (ATP), % of control: 13.8; Outcome: inactive

For Atg101 #3, how do the results read?
GFP, % of control: 79.1; viability (ATP), % of control: 73.8; Outcome: inactive

How did the screen score Ugt1a1 #1?
GFP, % of control: 62.9; viability (ATP), % of control: 72.5; Outcome: inactive

For Ugt1a1 #2, what was measured?
GFP, % of control: 56.5; viability (ATP), % of control: 79.5; Outcome: inactive

For Ugt1a1 #3, how do the results read?
GFP, % of control: 69.5; viability (ATP), % of control: 70.4; Outcome: inactive

What did the screen give for Nup155 #1?
GFP, % of control: 84.3; viability (ATP), % of control: 102; Outcome: inactive

For Nup155 #2, how do the results read?
GFP, % of control: 62.3; viability (ATP), % of control: 63.5; Outcome: inactive

How did the screen score Nup155 #3?
GFP, % of control: 96.1; viability (ATP), % of control: 108; Outcome: inactive

Which result is listed for Vmn1r17 #1?
GFP, % of control: 11.7; viability (ATP), % of control: 9.13; Outcome: inactive

What did the screen give for Vmn1r17 #2?
GFP, % of control: 55.3; viability (ATP), % of control: 60.6; Outcome: inactive

What is on record for Vmn1r17 #3?
GFP, % of control: 61.8; viability (ATP), % of control: 93.8; Outcome: inactive

How did the screen score Actl7a #1?
GFP, % of control: 35.1; viability (ATP), % of control: 32.4; Outcome: inactive

For Actl7a #2, how do the results read?
GFP, % of control: 72; viability (ATP), % of control: 93.1; Outcome: inactive

For Or5p4 #1, how do the results read?
GFP, % of control: 72.6; viability (ATP), % of control: 53.5; Outcome: inactive

Which result is listed for Or5p4 #2?
GFP, % of control: 99.3; viability (ATP), % of control: 85.3; Outcome: inactive

What is on record for Or5p4 #3?
GFP, % of control: 60.8; viability (ATP), % of control: 57.5; Outcome: inactive

What is on record for Bscl2 #1?
GFP, % of control: 98.2; viability (ATP), % of control: 84; Outcome: inactive

With Bscl2 #2, what does the deposit list?
GFP, % of control: 54.5; viability (ATP), % of control: 68.7; Outcome: inactive

What did the screen give for Bscl2 #3?
GFP, % of control: 142; viability (ATP), % of control: 132; Outcome: active

With Tcp1 #1, what was measured?
GFP, % of control: 69.1; viability (ATP), % of control: 58; Outcome: inactive

With Tcp1 #2, what was measured?
GFP, % of control: 87.7; viability (ATP), % of control: 50.7; Outcome: inactive

What is on record for Tcp1 #3?
GFP, % of control: 78.7; viability (ATP), % of control: 50.4; Outcome: inactive

With Cavin1 #1, how do the results read?
GFP, % of control: 59.5; viability (ATP), % of control: 81.8; Outcome: inactive

With Cavin1 #2, what does the deposit list?
GFP, % of control: 65.3; viability (ATP), % of control: 71.7; Outcome: inactive

How did the screen score Cavin1 #3?
GFP, % of control: 76.8; viability (ATP), % of control: 76.1; Outcome: inactive

With Padi3 #1, what was measured?
GFP, % of control: 78.6; viability (ATP), % of control: 62.7; Outcome: inactive

What is on record for Padi3 #2?
GFP, % of control: 122; viability (ATP), % of control: 128; Outcome: active

For Padi3 #3, what does the deposit list?
GFP, % of control: 65.4; viability (ATP), % of control: 56.7; Outcome: inactive

What did the screen give for Abtb3 #1?
GFP, % of control: 67.8; viability (ATP), % of control: 48.7; Outcome: inactive

For Abtb3 #2, what does the deposit list?
GFP, % of control: 77.8; viability (ATP), % of control: 79; Outcome: inactive

With Abtb3 #3, how do the results read?
GFP, % of control: 56.6; viability (ATP), % of control: 52.1; Outcome: inactive

What did the screen give for Zfp62 #1?
GFP, % of control: 65.9; viability (ATP), % of control: 69.4; Outcome: inactive

What did the screen give for Zfp62 #2?
GFP, % of control: 68.9; viability (ATP), % of control: 68.8; Outcome: inactive

Which result is listed for Zfp62 #3?
GFP, % of control: 85.3; viability (ATP), % of control: 72.1; Outcome: inactive

How did the screen score Arsa #1?
GFP, % of control: 90.9; viability (ATP), % of control: 105; Outcome: inactive

For Arsa #2, what does the deposit list?
GFP, % of control: 76.8; viability (ATP), % of control: 66; Outcome: inactive

What did the screen give for Arsa #3?
GFP, % of control: 64.8; viability (ATP), % of control: 107; Outcome: inactive

An excerpt from above, reduced to “viability (ATP), % of control”:
Atg101 #1: 74.2
Atg101 #2: 13.8
Atg101 #3: 73.8
